Source: patent publication US20140079691A1
These are yes or no findings as the source states them, for the method shown. Some entries that bind do so weakly or less than the wild type.

By UniProt entry, the sequences of proteins in these tests, tags left out. Residues count along the entry.
UniProt P03612, residues 2-130: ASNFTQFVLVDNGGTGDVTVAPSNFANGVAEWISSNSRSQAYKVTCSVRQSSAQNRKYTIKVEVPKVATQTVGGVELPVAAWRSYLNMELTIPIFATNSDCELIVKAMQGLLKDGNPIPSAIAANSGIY

Biological target: MS2 bacteriophage coat protein (MS2 bacteriophage) (UniProt P03612)
Experiment: SPR (Biacore)

Binder | binding
APE556 (antibody, V domains shown) VH: EVQLLESGGGLVQPGGSLRLSCAASGFTFSSYAMSWVRQAPGKGLEWVSTISTGGGYTYFPDSVKGRFTISRDNSKNTLYLQMNSLRAEDTAVYYCARQGDFGDWYFDVWGAGTTVTVSS VL: DVVMTQSPLSLPVTLGQPASISCRSSQSLVHSNGNTYLHWYQQRPGQSPRLLIYKVSNRFSGVPDRFSGSGSGTDFTLKISRVEAEDVGVYFCSQSTHVPWTFGGGTKLEIK | binds
APE1027 (antibody, V domains shown) VH: EVQLVESGGGLVQPGGSLILSCVASGFTFSSYAMSWVRQAPGKGLEWVCTISTGGGYTYSPDSVKGRFTCSRDNSKNTLYLQMNSLRAEDTAVYYCARQGDFGDWYFDVWGAGTTVTVSS VL: DVVLTQSPLSLAVLLGQPASISCRSSESLVHTNGNTYLHWYQQRPGQSPRLLIYKVSNRFSGVPDRFSGSGSGTDFTLKISRVEAEDVGVYFCSQSTRVPWTFGGGTKLEIK | binds
